PubChem BioAssay AID1259424 | University of Nebraska Medical Center – 2018

- Screen: 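Rank knockdowns across the genome by resemblance to the KSR1 depletion profile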 (primary screen)
- Cell system: human HCT116 colon cancer cells
- Reagent: siRNA pool against human genes, 50 nM
- Read-out: 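Six signature mRNAs by branched-DNA multiplex assay, scaled to two housekeeping genes and non-targeting median, log2; matched to mean KSR1 knockdown profile by Pearson correlation and euclidean distance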
- Scale: mean correlation with KSR1 profile and KSR1 correlation: higher = expression change more like KSR1 knockdown; mean distance from KSR1 profile: higher = expression change less like KSR1 knockdown
This is an unselected part of about 14,000 reagents tested. 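Higher correlation or smaller distance means closer resemblance to KSR1 loss; control wells, including KSR1 knockdowns, recur on many plates.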 Not given: the time to read-out.

| gene symbol | mean correlation with KSR1 profile | mean distance from KSR1 profile | KSR1 correlation, replicate 1 | KSR1 correlation, replicate 2 | KSR1 correlation, replicate 3 |
| --- | --- | --- | --- | --- | --- |
| GPR37 | 0.68 | 2.69 | 0.578 | 0.689 | 0.652 |
| OXR1 | -0.541 | 1.84 | -0.603 | -0.545 | -0.379 |
| ARPC3 | 0.246 | 1.59 | 0.373 | 0.287 | -0.0584 |
| DPEP1 | -0.179 | 2.47 | 0.144 | 0.361 | -0.52 |
| LHFPL6 | 0.287 | 2.23 | 0.281 | 0.42 | 0.288 |
| MT-ND1 | 0.65 | 2 | 0.546 | 0.475 | 0.503 |
| GLRX5 | -0.0695 | 2.94 | -0.112 | -0.0971 | -0.0712 |
| PRICKLE3 | 0.734 | 3.43 | 0.8 | 0.644 | 0.741 |
| NUDT11 | -0.431 | 2.29 | -0.584 | -0.307 | -0.186 |
| ADGRG6 | 0.487 | 1.93 | 0.33 | 0.642 | 0.457 |
| SLC37A4 | 0.195 | 1.58 | 0.128 | -0.0626 | 0.243 |
| SNX22 | 0.0189 | 3.73 | 0.137 | -0.00236 | -0.0299 |
| ATP6V0A1 | -0.44 | 6.65 | -0.473 | -0.324 | -0.522 |
| CUL3 | -0.934 | 1.95 | -0.748 | -0.967 | -0.871 |
| CABP2 | 0.347 | 1.51 | 0.272 | 0.451 | 0.488 |
| HBD | 0.275 | 1.14 | 0.411 | -0.0239 | 0.211 |
| DAD1 | 0.162 | 1.61 | 0.476 | 0.116 | -0.0648 |
| CYP2C8 | -0.133 | 2.57 | -0.446 | 0.187 | 0.107 |
| PCDHB7 | -0.225 | 2.03 | -0.298 | -0.466 | -0.0382 |
| CYP1A2 | -0.567 | 1.97 | -0.466 | -0.649 | -0.579 |
